The test has as its target MmRTL1 (mouse RTL1 produced in E. coli, tags removed) (mouse) (UniProt Q7M732). In words: self-assembly of E. coli-produced protein; size exclusion and electron microscopy.

Protein sequences, listed by entry. Tags and fused reporters are not part of them.
UniProt Q7M732: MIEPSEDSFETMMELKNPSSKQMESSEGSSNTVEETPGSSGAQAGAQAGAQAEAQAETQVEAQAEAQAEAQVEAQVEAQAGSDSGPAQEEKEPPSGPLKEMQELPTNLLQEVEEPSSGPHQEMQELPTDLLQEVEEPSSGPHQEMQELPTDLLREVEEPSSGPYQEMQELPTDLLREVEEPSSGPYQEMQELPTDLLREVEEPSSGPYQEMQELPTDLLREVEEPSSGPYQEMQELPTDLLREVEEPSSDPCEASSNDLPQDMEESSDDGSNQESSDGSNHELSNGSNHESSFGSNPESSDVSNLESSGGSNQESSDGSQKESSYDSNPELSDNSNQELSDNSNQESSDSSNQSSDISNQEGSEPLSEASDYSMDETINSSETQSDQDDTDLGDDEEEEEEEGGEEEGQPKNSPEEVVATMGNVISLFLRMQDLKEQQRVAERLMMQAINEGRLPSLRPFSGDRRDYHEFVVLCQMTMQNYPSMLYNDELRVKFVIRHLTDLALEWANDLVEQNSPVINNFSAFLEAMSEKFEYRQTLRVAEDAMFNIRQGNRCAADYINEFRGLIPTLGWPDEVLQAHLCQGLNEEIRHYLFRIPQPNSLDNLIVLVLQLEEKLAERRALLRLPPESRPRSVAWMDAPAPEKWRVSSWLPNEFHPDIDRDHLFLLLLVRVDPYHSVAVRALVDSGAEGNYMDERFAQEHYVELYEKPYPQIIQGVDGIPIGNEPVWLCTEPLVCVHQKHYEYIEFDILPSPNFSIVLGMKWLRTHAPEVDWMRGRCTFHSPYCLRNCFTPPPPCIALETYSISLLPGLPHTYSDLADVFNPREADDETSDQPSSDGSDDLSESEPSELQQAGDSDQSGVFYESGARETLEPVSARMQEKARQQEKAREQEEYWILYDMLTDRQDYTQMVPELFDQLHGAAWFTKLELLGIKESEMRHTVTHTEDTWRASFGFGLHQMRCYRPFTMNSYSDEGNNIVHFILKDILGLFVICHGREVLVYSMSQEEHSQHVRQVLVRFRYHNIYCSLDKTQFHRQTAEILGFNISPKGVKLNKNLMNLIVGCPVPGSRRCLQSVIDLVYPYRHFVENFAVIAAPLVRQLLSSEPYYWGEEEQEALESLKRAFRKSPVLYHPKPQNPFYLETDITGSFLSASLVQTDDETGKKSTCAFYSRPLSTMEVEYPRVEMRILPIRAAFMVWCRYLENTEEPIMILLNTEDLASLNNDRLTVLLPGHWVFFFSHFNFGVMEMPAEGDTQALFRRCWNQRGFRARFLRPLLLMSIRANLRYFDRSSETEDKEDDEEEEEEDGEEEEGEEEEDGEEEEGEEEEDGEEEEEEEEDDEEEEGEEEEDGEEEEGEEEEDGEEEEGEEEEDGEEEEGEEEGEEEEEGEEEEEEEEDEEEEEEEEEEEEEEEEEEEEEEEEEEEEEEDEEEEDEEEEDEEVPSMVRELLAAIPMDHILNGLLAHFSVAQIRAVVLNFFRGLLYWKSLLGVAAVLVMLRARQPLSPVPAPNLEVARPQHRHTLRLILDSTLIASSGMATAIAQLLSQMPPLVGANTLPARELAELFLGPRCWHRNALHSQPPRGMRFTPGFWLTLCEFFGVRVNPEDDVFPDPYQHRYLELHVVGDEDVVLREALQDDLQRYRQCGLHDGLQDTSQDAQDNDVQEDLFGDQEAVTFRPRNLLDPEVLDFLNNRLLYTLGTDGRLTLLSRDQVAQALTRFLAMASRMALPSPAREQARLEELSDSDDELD

Results are given in words; binding and its absence hold for the method and conditions named. Some binding calls cover weakened binding; strength is not graded here.

Take “MmRTL1 (mouse RTL1 produced in E. coli, tags removed) (from UniProt Q7M732 1-1744)”: the binding result was “binds”.

(Values after US20240084330A1.)
